Measured values reported in paper PMC9735679, “Identification and Evolution of a Natural Tetr Protein Based on Molecular Docking and Development of a Fluorescence Polari-Zation Assay for Multi-Detection of 10 Tetracyclines in Milk” (Foods, 2022).

Test: Recovery from standard fortified blank milk samples by FPA
Settings: n = 6

## CN(C)[C@@H]1C(O)=C(C(=O)NCNCCCC[C@H](N)C(=O)O)C(=O)[C@@]2(O)C(O)=C3C(=O)c4c(O)cccc4[C@@](C)(O)[C@H]3C[C@@H]12 [LMC, Lymecycline]
Added 10 ng/g
  Inter-Assay Recovery: 90.2%
  Intra-Assay Recovery: 82.4%
Added 100 ng/g
  Inter-Assay Recovery: 95.4%
  Intra-Assay Recovery: 82.5%

## CN(C)[C@@H]1C(O)=C(C(N)=O)C(=O)[C@@]2(O)C(O)=C3C(=O)c4c(O)cccc4[C@@](C)(O)[C@H]3C[C@@H]12 [TC, tetracycline]
Added 10 ng/g
  Inter-Assay Recovery: 81.2%
  Intra-Assay Recovery: 88.1%
Added 100 ng/g
  Inter-Assay Recovery: 93.5%
  Intra-Assay Recovery: 87.2%
